Source: patent US12351877B2, “Systems and methods for determining a treatment course of action” (Arizona Board of Regents on Behalf of the University of …, priority 2018, dated 2025)
At least one structure is not confirmed: it was looked up by name or label, or the drawing left a doubt.

Assays:
Type in all cases: cell-based, human
[1] = test system: ER+ MCF7 breast cancer cells; experiment: Three-dimensional culture system, in vitro invasion into 3D matrix
EVL mRNA in MCF7 cells = experiment: Quantitative real-time PCR of EVL mRNA; conditions: 24 hours; estradiol 10 nM, tamoxifen 1 μm, fulvestrant 100 nM; normalized to GAPDH
MCF7 cells [2] = experiment: Kymography analysis of membrane ruffles (DIC time-lapse); conditions: 72 hours
[3] = test system: ER+ breast cancer T47D cells; experiment: as above; conditions: validation of the MCF7 findings
MCF7 cells [4] = experiment: Proliferation assay; conditions: 48 hours
EVL mRNA in T47D cells = experiment: Quantitative real-time PCR of EVL mRNA; conditions: 24 hours; normalized to GAPDH
MCF7 cells [5] = experiment: F-actin staining, cortical actin bundles and cell scattering (LII)
MCF7 cells [6] = experiment: Volumetric analysis of leading edge pMLC and Arp2/3; conditions: within 3 μm of the cell edge
T47D cells = experiment: as above; conditions: confirmation of the MCF7 findings
[7] = E2 10 nM, hormone-starvation conditions, compared to control

C[C@]12CC[C@@H]3c4ccc(O)cc4CC[C@H]3[C@@H]1CC[C@@H]2O [E2, β-estradiol]
invasion of MCF7 cells into 3D matrix ([1]; 48 hours invasion, type-I collagen, 20 nM IGF1 in outer matrix): suppressed
invasion ([1]; EVL KD MCF7 cells): reversed the suppressive effects
EVL mRNA expression (EVL mRNA in MCF7 cells): induced
number of membrane ruffles (MCF7 cells [2]; [7]): marked decrease
speed of membrane ruffles (MCF7 cells [2]; [7]): marked decrease
response to E2 (generation of SCABs, suppression of membrane motility dynamics) (MCF7 cells [2]; EVL knock-down (KD) MCF7 cells): unresponsive
number and speed of membrane ruffles / protrusive activity [3]: validated
proliferation (MCF7 cells [4]): promoted proliferation
EVL mRNA expression (EVL mRNA in T47D cells): induced
cortical actin bundles (MCF7 cells [5]): prominent cortical actin bundles
pMLC at cortical bundles (contractility) (MCF7 cells [6]): significantly increased
leading edge pMLC and Arp2/3 (T47D cells): confirmed
